The values that follow come from paper PMC9029100.

No constants are given. Whether binding was seen depends on the method and setting. In cells and extracts the contact can be indirect. These calls come from enrichment with a bait or labelling near it, and not all partners need be listed. No binding means not detected with the bait. Sequences can lack the tags named with a protein.

The assay deals with T1, GFP-labeled Atg24 protein (Atg24-GFP) (Aspergillus fumigatus) (UniProt Q4WQI6).
T1 sequence: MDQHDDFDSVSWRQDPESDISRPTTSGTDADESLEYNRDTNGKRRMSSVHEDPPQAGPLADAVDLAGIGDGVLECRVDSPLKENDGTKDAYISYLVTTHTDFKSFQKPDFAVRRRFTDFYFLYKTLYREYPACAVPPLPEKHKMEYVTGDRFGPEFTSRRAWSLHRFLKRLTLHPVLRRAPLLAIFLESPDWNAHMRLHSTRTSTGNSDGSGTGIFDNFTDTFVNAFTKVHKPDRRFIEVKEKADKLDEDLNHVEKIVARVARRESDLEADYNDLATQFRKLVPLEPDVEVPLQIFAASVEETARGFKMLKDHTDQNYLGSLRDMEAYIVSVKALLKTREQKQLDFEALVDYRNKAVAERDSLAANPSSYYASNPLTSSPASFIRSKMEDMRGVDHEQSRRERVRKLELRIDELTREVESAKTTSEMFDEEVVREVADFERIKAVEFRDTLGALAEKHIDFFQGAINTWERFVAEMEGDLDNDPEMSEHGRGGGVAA
The experiment in a line: affinity purification with mass spectrometry; GFP-Trap affinity purification of Atg24-GFP from crude cellular extracts of triplicate A. fumigatus cultures, then quantitative LC-MS/MS; control strain expressing free GFP; significant if p < 0.05 and >2-fold over the GFP control.

With Atg20, autophagy sorting nexin protein, the binding result is “binds”.

B1: Atg8 (protein, UniProt Q4WJ27 1-118)
chain: MRSKFKDEHPFEKRKAEAERIRQKYADRIPVICEKVEKSDIATIDKKKYLVPADLTVGQFVYVIRKRIKLSPEKAIFIFVDEVLPPTAALMSSIYEEHKDEDGFLYITYSGENTFGDC
As to B1, the binding entry is “no binding”.
